Values of other authors in patent publication EP4144350B1, “TREATMENT OR PREVENTION OF VASCULAR MALFORMATION” (Universitätsmedizin Greifswald, priority 2021, dated 2023).
For at least one compound, name, drawing or mass did not settle the structure.

System: Ccm1^iECKO mice
Settings: cited from earlier work

For `Cc1ccc(C(=O)Nc2ccc(CN3CCN(C)CC3)c(C(F)(F)F)c2)cc1C#Cc1cnc2cccnn12` [ponatinib], the “CCM formation and lesion growth” value is given as “stopped CCM formation and lesion growth”.
